## Primary screen of a compound library

The values are deposited in ChEMBL (CHEMBL3988442, “University of Dundee, Small-Polar-MMV Screening Library” (2021)).

A: 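Whole-cell assay for inhibitors of Mycobacterium tuberculosis growth, labelled Cornell in the record; the read-out is not stated. The concentration is filed as 10 mM, unlikely as a test dose, so the dose is not known. Higher means stronger inhibition (inferred from two other growth screens of the library). Size under these conditions: about 53,000 compounds, about 900 of them at 50% or above in at least one test.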
B: 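Assay on Mycobacterium tuberculosis, filed only as a heat shock assay from Cornell; the read-out is not stated. The concentration is filed as 10 mM, unlikely as a test dose, so the dose is not known. Direction is inferred from retests: higher values go with stronger inhibition. Of about 69,000 compounds tested this way, about 930 (1.4%) reached 50% or more in at least one test.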

Values are the deposited “Percent Effect”, in %. How 0% and 100% were set is not recorded. Most values in the screen are low, and negative values occur. The compounds are a random part of those screened. A dash means the value is not listed here; it may have been measured.

| structure | A | B |
|---|---|---|
| `O=C(c1ccco1)N1CCC2(CCCN(c3ncc(F)cn3)C2)C1` (configuration not stated) | -10.06 | -1.463 |
| `Cc1cc(C)nc(C2CCN(C(=O)CCn3ncc4ccccc43)C2)n1` (configuration not stated) | -7.446 | 3.55 |
| `[H][C@@]12CCN(C(=O)c3occc3C)C[C@]1(COCc1ccncc1)CCO2` | 8.651 | 14.39 |
| `CC(C)CCc1cc(C(=O)O)nc2[nH]c(=O)[nH]c(=O)c12` | 12.25 | -2.413 |
| `CCOCC1CN(C(=O)c2cnoc2C)Cc2cn(C)nc21.O=C(O)C(F)(F)F` (configuration not stated) | 32.3 | -29.19 |
| `[H][C@@]12CN(C(=O)NC3CCCC3)C[C@]1(C(=O)O)CN(c1ccncc1)C2` | - | -160.8 |
| `CCCN1CCC(N(C)CCC(=O)Nc2ccccc2SC)CC1` | - | -28.42 |
| `CC(C)c1nnc2n1CC(CNCc1nc3ccccc3s1)CC2` (configuration not stated) | -10.91 | -3.463 |
| `Cn1ccc(C(=O)NCc2ccccc2CN2CCCC2)cc1=O` | - | -7.173 |
| `COc1nn(C)c2c1CCCN(S(=O)(=O)c1cccc(F)c1)C2` | 14.38 | 7.096 |
| `O=C(O)C(F)(F)F.[H][C@@]12CCN(Cc3ccccc3)C[C@@]1([H])O[C@@H](C(=O)NCC1CCOCC1)C2` | 43.3 | -21.55 |
| `CCn1ccnc1CNCC1CCN(CC(O)c2ccccc2)CC1` (configuration not stated) | -9.969 | -29.99 |
| `O=C(O)C(F)(F)F.[H][C@@]12COC[C@H](C(=O)N3CCCCO3)[C@]1([H])CN(Cc1cc(C)on1)C2` | 21.45 | -6.141 |
| `c1cn2c(n1)CO[C@@H](CNCc1ccc3c(c1)OCO3)C2` | -9.859 | -41.47 |
| `Cc1cccc(CN2CC3(CCN(Cc4ccoc4)CC3)OCC2=O)n1.O=C(O)C(F)(F)F.O=C(O)C(F)(F)F` | - | -32 |
| `CCC(C)C(=O)NCc1cccc(OCCN(C)C2CCOCC2)c1` (configuration not stated) | -23.55 | -5.328 |
| `O=C(O)C(F)(F)F.[H][C@]12CCC(=O)N(Cc3ccncc3)[C@@]1([H])CCN2C(=O)CC1CC1` | -8.478 | -9.228 |
| `Cn1cc(C2(C)CN(Cc3ccc(N4CCCC4)nc3)CCO2)cn1` (configuration not stated) | 23.59 | -6.344 |
| `CC(O)c1cn(C2CCN(C(=O)C3(C)CCN(C)CC3)CC2)nn1` (configuration not stated) | -6.077 | 2.602 |
| `Cc1cnn(CCNCC(=O)NCCOc2ccc(Cl)cc2)c1` | 8.467 | -14.62 |
| `CCc1c(NCc2ccc(F)cc2)cnn1CC(C)C` | 0.5138 | -30.06 |
| `O=C(O)[C@@H]1CN(CC(=O)N2CCCCCC2)C[C@H]1c1ccc(F)cc1` | -4.8 | -5.649 |
| `O=C(O)C(F)(F)F.[H][C@]12CCC[C@@]1(COCc1ccncc1)CN(C(=O)c1ccccc1F)C2` | 36.02 | -6.479 |
| `c1nc2c(c(C3CC3)n1)CCN(Cc1ccoc1)CC2` | 8.133 | -21.64 |
| `O=C(NC1CCN(c2ccc(-c3ccccc3F)nn2)C1)c1ccc[nH]1` (configuration not stated) | -39.64 | -21.39 |
| `CN(C)c1ccc(NC(=O)N2CCCCCC2c2ccncc2)cn1` (configuration not stated) | - | 11.73 |
| `Cc1ccc(C(=O)N2CCN(C(=O)Nc3ccccn3)CC2)o1` | - | -8.036 |
| `OCCn1nccc1C1CCN(CCOc2ccc(Cl)cc2)CC1` | -12.68 | -3.36 |
| `CN(C)c1ccc(CNC2=NCCCN2)cc1.I` | 27.52 | -7.538 |
| `[H][C@@]12CCN(C(=O)c3cscn3)[C@@]1([H])CCN2c1ccccn1` | -29.16 | -3.644 |
| `Cc1cc(C(=O)Nc2ccn(CCCN3CCCC3)n2)no1` | 13 | -5.887 |
| `CCN(CC)S(=O)(=O)CCNc1nnc(C(C)C)s1` | 3.24 | 5.651 |
| `Cn1ccnc1CN1CCCN(C(=O)c2ccc(Cl)o2)CC1` | 17.25 | -32.08 |
| `CCNC(=O)CS(=O)(=O)NC1CCC(C)CC1` (configuration not stated) | -36.82 | 19.05 |
| `O=C(O)C(F)(F)F.O=C(O)C(F)(F)F.c1ccc(O[C@H]2CO[C@@]3(CCN(Cc4ccc5c(c4)OCO5)C3)C2)nc1` | 36.7 | 3.074 |
| `Cc1cccc2c1cnn2CCC(=O)NCc1csc(C2CC2)n1` | 28.59 | -4.335 |
| `CC(c1ccc2c(c1)OCO2)N1Cc2nc(N(C)C)ncc2C1=O` (configuration not stated) | 4.247 | -0.3091 |
| `Cc1cnn(CCNCc2csc(-c3ccc4c(c3)OCO4)n2)c1` | - | 93.68 |
| `CN1CCN(CC2CC2)C(=O)c2cnc(N3CCCC3)nc21` | - | -18.21 |
| `COc1cc(CC(O)CO)c(OC)c2c1OCO2` (configuration not stated) | - | -9.326 |
| `CCC1C=CCN1C(=O)c1cc(COc2ccccc2OC)[nH]n1` (configuration not stated) | - | 11.36 |
| `CC(Nc1ncnc2c1NC(=O)CN2)c1ccc2c(c1)OCO2` (configuration not stated) | -3.006 | 7.171 |
| `CN1CCOC(CN(C(=O)CC2CCCC2)c2nccs2)C1` (configuration not stated) | 8.529 | 9.813 |
| `CCNC(=O)C(C)Oc1ccc(N(C)S(C)(=O)=O)cc1` (configuration not stated) | - | 9.829 |
| `O=C(COc1ccc(Br)cc1F)Nc1cn[nH]c1` | 2.074 | -5.798 |
| `CCN1CC(C(=O)N2CCN(c3nsc4ccccc34)CC2)CCC1=O` (configuration not stated) | - | -26.17 |
| `Cc1cc(N2CCCC2c2cnccn2)ncn1` (configuration not stated) | 4.507 | -9.798 |
| `Cn1cc(CN2CCCC(c3nc(O)cc(-c4cccs4)n3)C2)cn1` (configuration not stated) | 2.457 | -8.107 |
| `CCC(C)NC(=O)c1cncc(Br)c1` (configuration not stated) | 12.68 | 25.55 |
| `O=C(NCCn1ccnc1)N1CCN(Cc2cccs2)CC1` | -4.677 | -6.481 |
| `Cc1nc(CNC(=O)Nc2ccc3c(c2)CCCN3C)sc1C` | 32.71 | 29.57 |
| `[H][C@]12CC[C@]([H])(CN(c3ncccn3)C1)N(C(=O)c1cnc(SC)nc1)C2` | 1.32 | -6.385 |
| `O=C(NCC(O)COc1ccc(F)cc1)C1(c2ccc(F)cc2)CC1` (configuration not stated) | 5.784 | 20.25 |
| `CC1COCCN1Cc1nc(Cc2ccccc2)no1` (configuration not stated) | 11.42 | 15.26 |
| `[H][C@@]12CCN(C(=O)CCCn3nc(C)cc3C)C[C@@]1(CO)CCCN2` | 24.23 | -15.24 |
| `COc1ccccc1NC(=O)Cn1c(=O)nc(N)c2cc(C)sc21` | -16.18 | 23.62 |
| `Cc1ccc(-c2nnc(C(C)N3CCc4cncnc4C3)o2)cc1` (configuration not stated) | 23.17 | 4.906 |
| `COc1cc(CNc2nc(C3CC3)no2)cc(OC)c1OC` | 5.684 | 12.44 |
| `O=C(Nc1ccc(OCc2cccc(F)c2)c(F)c1)C1COCCO1` (configuration not stated) | 18.87 | 10.82 |
| `Cc1ccc2cccc(C(=O)NCC3CCN(C(C)C)C3)c2n1` (configuration not stated) | 8.598 | -21.69 |
| `COCCOc1ccc(Cl)c(C(=O)N2CCN(CCO)CC2)n1` | -16.9 | -11.63 |
| `O=C(c1cccnc1O)N1CCC2(CCCO2)CC1` | - | -109.6 |
| `Cc1cccc(C)c1OC1CN(Cc2cnn(C)c2)C1` | -4.508 | 0.3653 |
| `CS(=O)(=O)N1CCC(NC(=O)COc2ccccc2Cl)CC1` | - | -29.76 |
| `CC(C)c1nn(C)c(N(C)C)c1CNCCC(=O)NC1CCCCC1` | 8.324 | -9.54 |
| `Cc1nc(NC(=O)CCc2c(C)nc3cc(O)nn3c2C)sc1C` | 7.86 | 27.32 |
| `CCn1nc(C)c(CNC(=O)NCC(C)(O)c2ccco2)c1C` (configuration not stated) | 22.49 | -11.55 |
| `COCC(=O)N1CCCC2(COCCN(CCN(C)C)C2)C1.O=C(O)C(F)(F)F.O=C(O)C(F)(F)F` (configuration not stated) | -28.04 | -19.53 |
| `[H][C@@]12C[C@H](C(=O)NCC(C)C)[C@@]([H])(CN(C(=O)NCCc3ccccc3)C1)O2` | -4.914 | -25.15 |
| `Clc1snnc1CN1CCCC1Cn1cncn1` (configuration not stated) | - | -24.54 |
| `O=C(Nc1ccccc1)N1CCc2nc(C(=O)N3CCCC3)sc2CC1` | 29.46 | 8.659 |
| `O=C(c1cccnc1)N1CCCC1C1CCN(Cc2ccccc2)CC1` (configuration not stated) | 8.293 | 12.27 |
| `CC(C)=CCCN1CCN(C)C2(CCC(=O)N(C)CC2)C1` (configuration not stated) | 1.013 | 5.549 |
| `O=C(NCc1ccccn1)Nc1cc(C(F)(F)F)c[nH]c1=O` | -0.6938 | 14.75 |
| `O=C(c1cc[nH]n1)N1CCCC1C1CCN(Cc2ccccc2)CC1` (configuration not stated) | 1.767 | -16.71 |
| `NC(=O)CN(C(=O)c1c[nH]c2ncccc12)C1CCCC1` | 4.352 | -13.42 |
| `O=C(NCCc1cccnc1)c1ccc2nccn2c1` | - | -20.13 |
| `Cc1nc(NC(=O)CCN2C(=O)c3ccccc3NC2C(C)C)sc1C` (configuration not stated) | 2.594 | 0.05663 |
| `COCCNc1ccccc1CNC(=O)NCc1cnc(C)s1` | -4.257 | -14.57 |
| `Cc1nn(C)cc1CN1CCCC1c1cccc(Nc2nccs2)n1` (configuration not stated) | 56.13 | 99.7 |

The first 4 entries again:

structure	A	B
O=C(c1ccco1)N1CCC2(CCCN(c3ncc(F)cn3)C2)C1 (configuration not stated)	-10.06	-1.463
Cc1cc(C)nc(C2CCN(C(=O)CCn3ncc4ccccc43)C2)n1 (configuration not stated)	-7.446	3.55
[H][C@@]12CCN(C(=O)c3occc3C)C[C@]1(COCc1ccncc1)CCO2	8.651	14.39
CC(C)CCc1cc(C(=O)O)nc2[nH]c(=O)[nH]c(=O)c12	12.25	-2.413